Data taken from patent US20230149516A1, “USE OF PEPTIDYLGLYCINE ALPHA-AMIDATING MONOOXYGENASE (PAM) FOR THERAPEUTIC PURPOSE” (PAM THERAGNOSITICS GMBH, priority 2020, published 2023).
The name of at least one read-out is uncertain.

Test: In vivo half-life of PAM in rats (AMA in plasma, one phase decay fit)

B1: recombinant human PAM: Recombinant human peptidylglycine alpha-amidating monooxygenase, aa 21-834, SEQ ID No. 10 (Example 1); Example 10 used endotoxin-free recombinant PAM from SinoBiological (protein, listed as Homo sapiens)
chain: SPLSVFKRFKETTRPFSNECLGTTRPVVPIDSSDFALDIRMPGVTPKQSDTYFCMSMRIPVDEEAFVIDFKPRASMDTVHHMLLFGCNMPSSTGSYWFCDEGTCTDKANILYAWARNAPPTRLPKGVGFRVGGETGSKYFVLQVHYGDISAFRDNNKDCSGVSLHLTRLPQPLIAGMYLMMSVDTVIPAGEKVVNSDISCHYKNYPMHVFAYRVHTHHLGKVVSGYRVRNGQWTLIGRQSPQLPQAFYPVGHPVDVSFGDLLAARCVFTGEGRTEATHIGGTSSDEMCNLYIMYYMEAKHAVSFMTCTQNVAPDMFRTIPPEANIPIPVKSDMVMMHEHHKETEYKDKIPLLQQPKREEEEVLDQGDFYSLLSKLLGEREDVVHVHKYNPTEKAESESDLVAEIANVVQKKDLGRSDAREGAEHERGNAILVRDRIHKFHRLVSTLRPPESRVFSLQQPPPGEGTWEPEHTGDFHMEEALDWPGVYLLPGQVSGVALDPKNNLVIFHRGDHVWDGNSFDSKFVYQQIGLGPIEEDTILVIDPNNAAVLQSSGKNLFYLPHGLSIDKDGNYWVTDVALHQVFKLDPNNKEGPVLILGRSMQPGSDQNHFCQPTDVAVDPGTGAIYVSDGYCNSRIVQFSPSGKFITQWGEESSGSSPLPGQFTVPHSLALVPLLGQLCVADRENGRIQCFKTDTKEFVREIKHSSFGRNVFAISYIPGLLFAVNGKPHFGDQEPVQGFVMNFSNGEIIDIFKPVRKHFDMPHDIVASEDGTVYIGDAHTNTVWKFTLTEKLEHRSVKKAGIEVQEIKEAEAVVGS
- half-life of the PAM enzyme (both experiments of example 9) (intravenously administered, rats): approximately 53.5 min
- half-life of the PAM enzyme (second experiment, 25 μg single dose, three rats): 1 h
